Reference: publication PMC9834408, “The SPOC domain is a phosphoserine binding module that bridges transcription machinery with co- and post-transcriptional regulators” (Nature Communications, 2023)
No constants are given. Whether binding was seen depends on the method and setting. In cells and extracts the contact can be indirect. Here binding means that the protein was enriched with, or labelled near, the bait; the list need not be complete. For some assays here: Where a sequence is shown, tags or fusion partners need not be part of it.

Chains of the proteins cited; added tags and fusions are not shown.
UniProt P51114: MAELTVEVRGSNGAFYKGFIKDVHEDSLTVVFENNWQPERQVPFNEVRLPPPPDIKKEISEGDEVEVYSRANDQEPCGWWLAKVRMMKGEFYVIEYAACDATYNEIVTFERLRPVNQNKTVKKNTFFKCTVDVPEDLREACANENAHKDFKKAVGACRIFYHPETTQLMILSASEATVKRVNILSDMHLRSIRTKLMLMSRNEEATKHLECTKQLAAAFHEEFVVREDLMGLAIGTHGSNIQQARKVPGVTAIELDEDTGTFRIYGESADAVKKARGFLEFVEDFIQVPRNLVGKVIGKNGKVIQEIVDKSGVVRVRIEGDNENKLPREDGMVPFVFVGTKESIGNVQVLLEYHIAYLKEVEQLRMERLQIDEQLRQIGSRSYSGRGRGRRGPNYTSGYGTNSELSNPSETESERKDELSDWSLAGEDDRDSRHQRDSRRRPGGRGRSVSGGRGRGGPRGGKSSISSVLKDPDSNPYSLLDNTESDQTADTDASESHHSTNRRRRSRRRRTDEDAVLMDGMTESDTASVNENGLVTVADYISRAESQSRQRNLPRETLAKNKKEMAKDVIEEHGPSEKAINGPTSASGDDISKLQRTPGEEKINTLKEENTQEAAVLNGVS
UniProt Q69YN4: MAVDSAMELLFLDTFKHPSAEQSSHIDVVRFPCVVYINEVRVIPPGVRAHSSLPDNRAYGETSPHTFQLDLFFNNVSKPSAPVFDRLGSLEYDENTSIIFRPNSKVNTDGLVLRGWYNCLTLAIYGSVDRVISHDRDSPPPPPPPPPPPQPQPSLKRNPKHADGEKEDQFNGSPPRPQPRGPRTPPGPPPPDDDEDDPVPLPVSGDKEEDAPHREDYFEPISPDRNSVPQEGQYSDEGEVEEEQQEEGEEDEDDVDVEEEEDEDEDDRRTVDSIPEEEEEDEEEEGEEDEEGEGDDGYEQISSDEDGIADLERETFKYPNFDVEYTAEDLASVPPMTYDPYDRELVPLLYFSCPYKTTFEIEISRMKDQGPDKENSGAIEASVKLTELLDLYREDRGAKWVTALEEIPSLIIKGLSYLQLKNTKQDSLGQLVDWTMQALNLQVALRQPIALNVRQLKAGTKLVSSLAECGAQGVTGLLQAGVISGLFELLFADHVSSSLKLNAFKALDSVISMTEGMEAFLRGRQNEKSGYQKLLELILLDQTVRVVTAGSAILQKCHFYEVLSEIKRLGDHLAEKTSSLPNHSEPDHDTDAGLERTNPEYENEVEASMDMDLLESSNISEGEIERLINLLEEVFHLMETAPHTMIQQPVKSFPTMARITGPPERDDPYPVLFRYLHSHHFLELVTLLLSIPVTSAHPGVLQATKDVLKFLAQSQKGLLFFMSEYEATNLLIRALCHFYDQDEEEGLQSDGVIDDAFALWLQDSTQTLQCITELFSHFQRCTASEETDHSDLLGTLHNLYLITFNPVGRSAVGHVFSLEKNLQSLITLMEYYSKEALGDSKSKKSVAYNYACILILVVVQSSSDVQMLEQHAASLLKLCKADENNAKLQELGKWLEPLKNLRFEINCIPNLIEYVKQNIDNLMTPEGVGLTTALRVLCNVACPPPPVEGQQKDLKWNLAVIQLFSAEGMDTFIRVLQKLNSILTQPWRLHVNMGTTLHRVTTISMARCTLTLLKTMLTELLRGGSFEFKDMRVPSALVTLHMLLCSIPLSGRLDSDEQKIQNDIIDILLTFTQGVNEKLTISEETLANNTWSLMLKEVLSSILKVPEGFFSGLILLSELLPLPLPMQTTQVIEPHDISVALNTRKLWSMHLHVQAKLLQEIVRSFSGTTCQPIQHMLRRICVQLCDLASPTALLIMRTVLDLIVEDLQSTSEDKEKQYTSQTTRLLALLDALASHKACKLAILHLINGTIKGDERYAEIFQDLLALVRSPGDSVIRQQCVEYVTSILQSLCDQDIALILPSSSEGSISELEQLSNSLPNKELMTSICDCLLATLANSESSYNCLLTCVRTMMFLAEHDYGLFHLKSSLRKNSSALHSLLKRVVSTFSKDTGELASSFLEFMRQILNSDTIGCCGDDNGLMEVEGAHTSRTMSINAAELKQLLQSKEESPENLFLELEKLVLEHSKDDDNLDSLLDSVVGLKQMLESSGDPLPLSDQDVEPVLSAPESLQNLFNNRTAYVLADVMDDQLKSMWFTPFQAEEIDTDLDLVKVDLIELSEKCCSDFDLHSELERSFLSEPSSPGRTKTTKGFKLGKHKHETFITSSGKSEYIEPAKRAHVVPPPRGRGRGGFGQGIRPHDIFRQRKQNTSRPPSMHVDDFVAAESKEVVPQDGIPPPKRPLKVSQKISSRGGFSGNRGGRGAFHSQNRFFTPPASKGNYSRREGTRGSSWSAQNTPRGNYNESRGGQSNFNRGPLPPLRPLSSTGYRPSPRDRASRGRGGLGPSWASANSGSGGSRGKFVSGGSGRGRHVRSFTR
UniProt P51116: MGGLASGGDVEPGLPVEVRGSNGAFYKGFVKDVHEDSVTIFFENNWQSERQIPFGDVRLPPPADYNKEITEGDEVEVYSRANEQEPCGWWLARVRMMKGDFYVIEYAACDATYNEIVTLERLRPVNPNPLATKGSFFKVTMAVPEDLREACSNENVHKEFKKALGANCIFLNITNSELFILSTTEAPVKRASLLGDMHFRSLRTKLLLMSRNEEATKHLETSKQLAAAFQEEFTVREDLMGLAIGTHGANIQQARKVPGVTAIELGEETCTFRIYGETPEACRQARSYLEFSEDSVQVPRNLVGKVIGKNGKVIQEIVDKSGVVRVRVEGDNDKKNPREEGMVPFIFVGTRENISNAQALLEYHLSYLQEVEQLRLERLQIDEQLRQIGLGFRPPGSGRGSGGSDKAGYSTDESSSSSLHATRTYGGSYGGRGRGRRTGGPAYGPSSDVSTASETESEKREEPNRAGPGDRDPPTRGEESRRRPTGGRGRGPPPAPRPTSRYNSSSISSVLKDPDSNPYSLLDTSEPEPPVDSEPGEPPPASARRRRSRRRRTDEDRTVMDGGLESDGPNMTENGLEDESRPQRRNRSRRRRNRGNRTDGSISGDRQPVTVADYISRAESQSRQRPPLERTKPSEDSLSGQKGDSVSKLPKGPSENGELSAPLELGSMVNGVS
UniProt Q5T200: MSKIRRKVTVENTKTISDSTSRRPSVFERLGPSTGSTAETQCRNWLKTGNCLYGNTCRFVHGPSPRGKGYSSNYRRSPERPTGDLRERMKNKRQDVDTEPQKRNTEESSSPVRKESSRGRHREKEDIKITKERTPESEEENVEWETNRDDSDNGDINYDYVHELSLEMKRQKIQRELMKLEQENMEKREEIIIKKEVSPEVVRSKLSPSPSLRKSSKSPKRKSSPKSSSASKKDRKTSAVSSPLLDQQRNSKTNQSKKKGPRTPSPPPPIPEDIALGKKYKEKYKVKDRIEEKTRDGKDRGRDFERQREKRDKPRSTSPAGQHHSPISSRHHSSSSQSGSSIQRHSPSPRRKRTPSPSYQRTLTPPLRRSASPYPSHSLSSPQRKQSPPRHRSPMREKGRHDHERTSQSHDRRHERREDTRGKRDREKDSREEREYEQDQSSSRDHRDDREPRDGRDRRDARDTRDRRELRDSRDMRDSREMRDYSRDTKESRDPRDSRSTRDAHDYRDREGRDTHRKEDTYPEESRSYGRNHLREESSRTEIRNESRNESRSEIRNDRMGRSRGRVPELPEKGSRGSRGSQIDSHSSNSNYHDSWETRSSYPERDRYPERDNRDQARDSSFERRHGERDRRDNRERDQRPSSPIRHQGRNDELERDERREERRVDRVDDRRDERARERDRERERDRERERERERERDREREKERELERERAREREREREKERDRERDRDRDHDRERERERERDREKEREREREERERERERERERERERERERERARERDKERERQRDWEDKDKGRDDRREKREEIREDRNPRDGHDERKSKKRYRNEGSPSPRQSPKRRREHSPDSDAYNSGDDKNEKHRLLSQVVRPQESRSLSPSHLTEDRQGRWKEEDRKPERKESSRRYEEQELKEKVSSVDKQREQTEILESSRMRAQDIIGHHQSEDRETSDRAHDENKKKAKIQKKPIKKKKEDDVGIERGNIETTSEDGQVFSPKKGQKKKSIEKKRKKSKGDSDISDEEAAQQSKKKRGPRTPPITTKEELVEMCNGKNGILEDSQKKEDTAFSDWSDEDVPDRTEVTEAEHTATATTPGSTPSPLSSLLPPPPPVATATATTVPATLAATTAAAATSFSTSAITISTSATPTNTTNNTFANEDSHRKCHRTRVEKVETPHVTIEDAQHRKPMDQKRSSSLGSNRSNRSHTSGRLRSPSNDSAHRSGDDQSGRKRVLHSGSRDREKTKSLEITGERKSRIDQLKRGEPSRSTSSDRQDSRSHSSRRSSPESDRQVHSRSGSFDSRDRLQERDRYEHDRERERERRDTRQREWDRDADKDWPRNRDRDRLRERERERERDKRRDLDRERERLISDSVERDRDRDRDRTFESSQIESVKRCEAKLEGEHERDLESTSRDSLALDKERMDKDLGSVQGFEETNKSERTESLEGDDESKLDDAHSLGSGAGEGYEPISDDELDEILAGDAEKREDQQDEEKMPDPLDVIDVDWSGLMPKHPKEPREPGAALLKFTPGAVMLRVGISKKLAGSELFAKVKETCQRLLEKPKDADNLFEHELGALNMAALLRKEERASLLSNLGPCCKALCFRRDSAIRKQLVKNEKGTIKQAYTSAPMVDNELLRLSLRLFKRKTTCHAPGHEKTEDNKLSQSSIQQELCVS
UniProt P12004: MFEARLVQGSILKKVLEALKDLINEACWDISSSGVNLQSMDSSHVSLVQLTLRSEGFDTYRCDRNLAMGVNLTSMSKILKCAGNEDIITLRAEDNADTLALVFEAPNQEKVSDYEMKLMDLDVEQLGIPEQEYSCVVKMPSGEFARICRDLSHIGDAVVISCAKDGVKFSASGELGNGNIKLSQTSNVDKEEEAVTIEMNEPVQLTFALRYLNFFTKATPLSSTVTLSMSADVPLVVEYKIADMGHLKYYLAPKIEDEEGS

Key:
[1] = molecular target: SHARP-GFP (human (endogenous in HEK293T)) (UniProt Q96T58); experiment: affinity purification with mass spectrometry; anti-GFP immunoprecipitation (beads with cross-linked anti-GFP nanobody) from HEK293T cell lines expressing endogenously GFP-tagged SHARP WT or ΔSPOC; WT cells as control; three replicates
[2] = molecular target: 3×FLAG-NLS-RBM15-SPOC (human) (UniProt Q96T37); experiment: affinity purification with mass spectrometry; anti-FLAG M2 beads; 3×FLAG-NLS-SPOC domains expressed in HEK293T; lysis in 50 mM Tris-Cl pH 8, 150 mM NaCl, 0.1% Triton with benzonase; empty vector as control; three replicates

binding [1] | binding [2] | Substance
binds |  | FXR1 (from UniProt P51114 1-621)
 | binds | VIRMA/KIAA1429 (from UniProt Q69YN4 1-1812)
binds |  | FXR2 (from UniProt P51116 1-673)
 | binds | ZC3H13 (from UniProt Q5T200 1-1668)
 | binds | PCNA (from UniProt P12004 1-261)
